Laboratory results reported in publication PMC2702331.
No constants are given. Whether binding was seen depends on the method and setting. In cells and extracts the contact can be indirect. Some results given as binding are weak or reduced against the parent protein; the word gives no strength.

Amino acid sequences for entries named in this document (tags omitted).
UniProt P04608: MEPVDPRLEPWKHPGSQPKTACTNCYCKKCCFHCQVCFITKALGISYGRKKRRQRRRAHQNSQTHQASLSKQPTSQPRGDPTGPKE
UniProt O96019: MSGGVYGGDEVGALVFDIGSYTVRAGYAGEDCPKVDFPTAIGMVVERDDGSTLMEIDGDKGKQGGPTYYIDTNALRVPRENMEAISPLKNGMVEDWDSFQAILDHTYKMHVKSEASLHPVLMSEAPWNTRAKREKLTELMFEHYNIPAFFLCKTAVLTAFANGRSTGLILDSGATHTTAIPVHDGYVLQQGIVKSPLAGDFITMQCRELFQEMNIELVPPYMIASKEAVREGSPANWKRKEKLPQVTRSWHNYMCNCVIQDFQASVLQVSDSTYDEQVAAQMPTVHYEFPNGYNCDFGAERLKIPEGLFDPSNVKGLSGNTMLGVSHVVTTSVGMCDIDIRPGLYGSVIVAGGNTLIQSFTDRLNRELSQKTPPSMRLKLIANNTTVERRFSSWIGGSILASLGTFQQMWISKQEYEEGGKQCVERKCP
UniProt Q13547: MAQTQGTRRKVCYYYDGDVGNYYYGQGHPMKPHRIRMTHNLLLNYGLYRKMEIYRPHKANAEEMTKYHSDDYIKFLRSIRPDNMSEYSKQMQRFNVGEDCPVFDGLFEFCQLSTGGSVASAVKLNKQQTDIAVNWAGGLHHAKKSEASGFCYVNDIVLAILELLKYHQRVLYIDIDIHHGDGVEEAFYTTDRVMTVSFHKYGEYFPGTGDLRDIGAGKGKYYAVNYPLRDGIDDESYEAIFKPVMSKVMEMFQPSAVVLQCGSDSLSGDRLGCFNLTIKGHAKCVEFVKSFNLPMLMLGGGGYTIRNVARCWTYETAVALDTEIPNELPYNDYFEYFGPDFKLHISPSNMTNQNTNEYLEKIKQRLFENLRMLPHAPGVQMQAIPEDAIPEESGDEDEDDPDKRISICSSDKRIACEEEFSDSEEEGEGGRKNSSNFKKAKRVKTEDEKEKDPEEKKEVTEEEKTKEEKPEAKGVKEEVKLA
UniProt Q13422: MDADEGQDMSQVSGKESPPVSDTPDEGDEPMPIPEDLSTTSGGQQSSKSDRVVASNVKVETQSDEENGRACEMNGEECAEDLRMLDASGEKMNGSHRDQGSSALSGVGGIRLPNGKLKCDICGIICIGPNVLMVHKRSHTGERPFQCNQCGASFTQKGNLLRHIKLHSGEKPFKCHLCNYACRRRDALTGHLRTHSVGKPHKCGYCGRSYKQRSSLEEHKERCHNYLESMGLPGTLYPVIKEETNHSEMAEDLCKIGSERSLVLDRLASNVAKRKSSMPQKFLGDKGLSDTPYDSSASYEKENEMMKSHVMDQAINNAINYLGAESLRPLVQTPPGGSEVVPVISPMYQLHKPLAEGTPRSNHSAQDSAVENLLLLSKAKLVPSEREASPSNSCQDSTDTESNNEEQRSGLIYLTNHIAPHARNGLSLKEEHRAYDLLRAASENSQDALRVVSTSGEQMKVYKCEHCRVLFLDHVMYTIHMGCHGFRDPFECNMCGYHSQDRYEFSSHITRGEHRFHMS
UniProt Q09028: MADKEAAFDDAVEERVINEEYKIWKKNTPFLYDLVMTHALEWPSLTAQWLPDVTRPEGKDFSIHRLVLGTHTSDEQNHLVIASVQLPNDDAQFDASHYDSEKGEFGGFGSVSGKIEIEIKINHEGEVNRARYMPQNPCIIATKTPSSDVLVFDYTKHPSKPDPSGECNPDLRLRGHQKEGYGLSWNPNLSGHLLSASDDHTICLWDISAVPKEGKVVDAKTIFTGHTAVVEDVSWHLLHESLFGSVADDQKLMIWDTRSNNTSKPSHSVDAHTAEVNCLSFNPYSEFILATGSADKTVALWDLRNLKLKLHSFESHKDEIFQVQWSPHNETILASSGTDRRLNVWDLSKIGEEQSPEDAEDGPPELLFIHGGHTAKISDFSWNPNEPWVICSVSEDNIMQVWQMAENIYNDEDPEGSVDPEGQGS
UniProt O60264: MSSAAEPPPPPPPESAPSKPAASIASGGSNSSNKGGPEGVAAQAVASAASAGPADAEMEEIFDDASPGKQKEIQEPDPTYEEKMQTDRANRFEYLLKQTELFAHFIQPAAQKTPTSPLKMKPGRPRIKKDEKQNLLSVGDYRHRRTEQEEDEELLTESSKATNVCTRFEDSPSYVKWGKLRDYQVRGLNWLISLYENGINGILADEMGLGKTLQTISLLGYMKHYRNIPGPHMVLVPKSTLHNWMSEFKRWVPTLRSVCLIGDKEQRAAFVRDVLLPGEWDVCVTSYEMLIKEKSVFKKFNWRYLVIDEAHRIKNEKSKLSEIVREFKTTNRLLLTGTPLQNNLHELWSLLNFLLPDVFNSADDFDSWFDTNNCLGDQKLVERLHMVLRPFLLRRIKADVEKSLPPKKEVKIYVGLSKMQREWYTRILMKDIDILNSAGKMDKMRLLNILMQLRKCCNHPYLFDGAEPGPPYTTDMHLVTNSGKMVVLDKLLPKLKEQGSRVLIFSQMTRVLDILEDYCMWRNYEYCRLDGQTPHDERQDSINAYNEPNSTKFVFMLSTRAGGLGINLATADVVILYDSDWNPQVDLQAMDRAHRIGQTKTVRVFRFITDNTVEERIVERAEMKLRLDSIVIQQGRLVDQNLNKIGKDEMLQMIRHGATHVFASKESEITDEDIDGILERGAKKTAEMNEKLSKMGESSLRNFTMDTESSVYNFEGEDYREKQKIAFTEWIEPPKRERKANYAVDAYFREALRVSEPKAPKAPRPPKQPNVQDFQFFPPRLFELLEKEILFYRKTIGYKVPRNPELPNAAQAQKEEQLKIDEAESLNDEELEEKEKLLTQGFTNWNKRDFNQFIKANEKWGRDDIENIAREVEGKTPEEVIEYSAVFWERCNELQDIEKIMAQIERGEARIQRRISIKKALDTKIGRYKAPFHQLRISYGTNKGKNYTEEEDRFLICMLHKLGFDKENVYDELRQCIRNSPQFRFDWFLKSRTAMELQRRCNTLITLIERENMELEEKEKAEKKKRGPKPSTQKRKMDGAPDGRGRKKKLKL
UniProt Q9Y5B9: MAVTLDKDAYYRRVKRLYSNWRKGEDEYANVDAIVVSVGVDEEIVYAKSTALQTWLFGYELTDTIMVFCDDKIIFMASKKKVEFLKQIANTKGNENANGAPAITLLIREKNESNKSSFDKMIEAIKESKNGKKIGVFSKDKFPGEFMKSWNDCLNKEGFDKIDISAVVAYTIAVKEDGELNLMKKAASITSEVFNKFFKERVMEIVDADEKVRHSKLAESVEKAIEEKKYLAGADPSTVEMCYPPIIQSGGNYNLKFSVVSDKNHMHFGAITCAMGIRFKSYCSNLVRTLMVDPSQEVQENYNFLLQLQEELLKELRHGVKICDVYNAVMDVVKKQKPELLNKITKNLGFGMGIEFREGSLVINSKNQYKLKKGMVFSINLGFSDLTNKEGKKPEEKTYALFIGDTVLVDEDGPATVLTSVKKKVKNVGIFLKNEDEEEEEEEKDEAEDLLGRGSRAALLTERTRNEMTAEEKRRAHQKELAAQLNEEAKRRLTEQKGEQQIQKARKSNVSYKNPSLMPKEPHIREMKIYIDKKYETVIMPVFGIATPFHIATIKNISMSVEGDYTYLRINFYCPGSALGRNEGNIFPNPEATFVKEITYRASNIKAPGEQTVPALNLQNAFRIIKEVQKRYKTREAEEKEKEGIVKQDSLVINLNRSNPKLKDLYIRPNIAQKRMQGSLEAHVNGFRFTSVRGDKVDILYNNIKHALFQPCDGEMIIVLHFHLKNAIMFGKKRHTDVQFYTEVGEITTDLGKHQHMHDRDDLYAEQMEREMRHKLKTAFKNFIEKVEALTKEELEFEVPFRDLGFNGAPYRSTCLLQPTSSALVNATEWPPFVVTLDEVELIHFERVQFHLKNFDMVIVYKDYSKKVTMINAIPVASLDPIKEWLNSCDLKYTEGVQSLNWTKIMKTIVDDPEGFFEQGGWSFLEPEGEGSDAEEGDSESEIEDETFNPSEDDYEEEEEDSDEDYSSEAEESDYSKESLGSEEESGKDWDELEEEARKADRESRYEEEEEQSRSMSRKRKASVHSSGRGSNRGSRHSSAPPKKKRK

target: GST-Tat (HIV-1 HXB2, 86 amino acids) (HIV-1 HXB2) (UniProt P04608); experiment: pull-down; GST, GST-Tat or GST-Tat-NLS immobilised on glutathione-Sepharose; Jurkat nuclear extract (150 ug); washes in binding buffer with 300 mM, 500 mM, 800 mM or 1 M NaCl (GST-Tat-NLS: 300 mM); eluates by Western blot; only the target purified

Molecule	binding
BAF53A (from UniProt O96019 1-429)	binds
HDAC-1 (from UniProt Q13547 1-482)	binds
Ikaros (from UniProt Q13422 1-519)	binds
RbAp48 (from UniProt Q09028 1-425)	binds
SNF2H (from UniProt O60264 1-1052)	binds
SPT16 (from UniProt Q9Y5B9 1-1047)	binds

target: GST-Tat (HIV-1 HXB2, 86 amino acids) (HIV-1 HXB2) (UniProt P04608); experiment: as above; remark: another data set of the same source

Molecule	binding
SAP18 (protein, UniProt O00422 1-153) MAVESRVTQEEIKKEPEKPIDREKTCPLLLRVFTTNNGRHHRMDEFSRGNVPSSELQIYTWMDATLKELTSLVKEVYPEARKKGTHFNFAIVFTDVKRPGYRVKEIGSTMSGRKGTDDSMTLQSQKFQIGDYLDIAITPPNRAPPPSGRMRPY	binds
